Here are results for 35 compounds from PubChem BioAssay AID330 (DTP/NCI, 2004).

The list shows only some results of the screen, not a fair sample: it is rich in T/C values a quarter to a half above the control, in often repeated tests (any T/C) and in doses without a T/C. Further doses and runs are listed elsewhere. T/C gives the treated animals as a percentage of the vehicle group. Some doses have a count of surviving animals in place of a T/C: the source holds a T/C of zero for them, seemingly a mark for toxic or unscored doses. Some survivor counts are full or nearly so, which does not show that the dose was tolerated: the source hardly ever lists a survival T/C far under the control, and the zero likely stands for such cases as well. Survivors were counted at the toxicity check, usually on the fifth day, unless a day is given; later deaths do not show. Schedules are NCI's codes, taken here to give the interval after Q, in days (D) or hours (H), and the number of doses after X. Some structures stand for samples that the source files as different forms (salt, stereo form or complex); doses refer to the form tested. Some entries hold several experiments; the results are listed from low to high. For survival time, the PubChem record calls one and a half times the control and up active, and a quarter to a half above the control has no call in these data; cut-offs in other NCI protocols can differ. Some T/C values are followed by the survivors on the day toxicity was checked, most often the fifth; without a count, all were alive then.

The assay relates to P388 leukemia ip, CD2F1 mice, survival T/C. Briefly: NCI In Vivo Anticancer Drug Screen. Data for tumor model P388 Leukemia (intraperitoneal) in CD2F1 (CDF1) mice. Conditions: T/C endpoint: median survival time, higher T/C = longer survival.
The mark [1] stands for this setting: dose: 200.0 mg/kg/injection, schedule: Q01DX005 (ip), vehicle: saline with Tween-80.
[2] abbreviates: dose: 25.0 mg/kg/injection, schedule: Q01DX009 (ip), vehicle: saline with Tween-80.
Where [3] appears, read: dose: 200.0 mg/kg/injection, schedule: Q01DX009 (ip), vehicle: saline.
[4] abbreviates: dose: 100.0 mg/kg/injection, schedule: Q01DX009 (ip), vehicle: saline.
Where [5] appears, read: dose: 200.0 mg/kg/injection, schedule: Q01DX009 (ip), vehicle: water.
Where [6] appears, read: dose: 200.0 mg/kg/injection, schedule: Q01DX009 (ip), vehicle: saline with Tween-80.
[7] abbreviates: dose: 120.0 mg/kg/injection, schedule: Q01DX005 (ip), vehicle: saline with Tween-80.
Where [8] appears, read: dose: 240.0 mg/kg/injection, schedule: Q01DX005 (ip), vehicle: saline with Tween-80.
Setting [9] is: dose: 50.0 mg/kg/injection, schedule: Q01DX005 (ip), vehicle: saline.
Setting [10] is: dose: 100.0 mg/kg/injection, schedule: Q01DX005 (ip), vehicle: saline.
Where [11] appears, read: dose: 200.0 mg/kg/injection, schedule: Q01DX005 (ip), vehicle: saline.

Regarding `C=C1C(=O)OC2C=CCCCC12` (stereo not given), the survivor count was 0 of 6 and 3 of 6 (dose: 200.0 mg/kg/injection, schedule: Q01DX001 (ip), vehicle: saline with Tween-80); 0 of 6 (dose: 400.0 mg/kg/injection, schedule: Q01DX001 (ip), vehicle: saline with Tween-80). Turning to `CN(C)CCCOC1(Cc2ccc(F)cc2)CCCCCC1`, under setting [1], the survivor count is on record as 0 of 5. As for `CCNc1ccc2c(-c3ccccc3C(=O)O)c3ccc(=[N+](CC)CC)cc-3oc2c1`, under setting [1], the survivor count is 1 of 5. In the case of `O=c1c2ncccc2cc2n1CCc1c-2[nH]c2ccccc12`, the survivor count under setting [2] was 6 of 6.

For the compound `CCOC(=O)C(=C\c1nncn1-c1ccccc1)/C=C(/O)c1ccccc1`, the survivor count is reported as 6 of 6 (dose: 60.0 mg/kg/injection, schedule: Q01DX005 (ip), vehicle: Klucel (hydroxypropylcellulose) (HPC)); 6 of 6 (dose: 120.0 mg/kg/injection, schedule: Q01DX005 (ip), vehicle: Klucel (hydroxypropylcellulose) (HPC)); 6 of 6 (dose: 240.0 mg/kg/injection, schedule: Q01DX005 (ip), vehicle: Klucel (hydroxypropylcellulose) (HPC)). In the case of `O=P(N1CCCC1)(N1CC1)N1CC1`, the T/C (dose: 5.5 mg/kg/injection, schedule: Q04DX003 (ip), vehicle: saline) is 140 % of control. For the same compound, the survivor count (dose: 25.0 mg/kg/injection, schedule: Q01DX009 (ip), vehicle: saline) is 6 of 6. Consider `O=NN(CCCl)C(=O)N(CCCl)C(=O)Oc1c(Cl)cc(Cl)cc1Cl`, for which the T/C by setting is: (dose: 25.0 mg/kg/injection, schedule: Q01DX001 (ip), vehicle: saline with Tween-80) 131 % of control; (dose: 50.0 mg/kg/injection, schedule: Q01DX001 (ip), vehicle: saline with Tween-80) 136 and 140 % of control. Take `CCOC(=O)CSc1cc(O)c2ccccc2c1N=Nc1ccc(C(=O)O)cc1`: where the note is “dose: 50.0 mg/kg/injection, schedule: Q01DX005 (ip), vehicle: saline with Tween-80”, the survivor count was 6 of 6. Consider `c1ccc2oc(NCCSSCCNc3nc4ccccc4o3)nc2c1`, for which the survivor count was 6 of 6 (dose: 100.0 mg/kg/injection, schedule: Q01DX009 (ip), vehicle: other) and 2 of 6 (dose: 200.0 mg/kg/injection, schedule: Q01DX009 (ip), vehicle: other). As to `C[N+]1(C)CCCC(O)(C(=O)c2ccccc2)C1` (stereo not given), under “dose: 400.0 mg/kg/injection, schedule: Q01DX001 (ip), vehicle: saline”, the survivor count is reported as 1 of 6. Consider `O=C(Nc1ccc(Cl)cc1)Nc1nccs1`, for which the survivor count (dose: 200.0 mg/kg/injection, schedule: Q01DX009 (ip), vehicle: distilled water + Tween-80) is given as 2 of 6.

Consider `Nc1ncnc(Nc2ccc(S(N)(=O)=O)cc2)n1`, for which the survivor count (dose: 40.0 mg/kg/injection, schedule: Q01DX009 (ip), vehicle: Klucel (hydroxypropylcellulose) (HPC)) is reported as 1 of 5.

As to `CN(c1ccccc1)c1cc2nc3ccccc3nc2cc1O`, the survivor count under setting [3] was 6 of 6.

Regarding `Cc1ccc(N=Nc2c(-c3ccccc3)nn(C(=S)S)c2C)cc1`, for the setting “dose: 100.0 mg/kg/injection, schedule: Q04DX002 (ip), vehicle: Klucel (hydroxypropylcellulose) (HPC)”, the survivor count is recorded as 5 of 5.

For the compound `CCC1(O)CC(OC2CC(NC)C(OC3CC(O)C(OC4CC(O)C(O)C(C)O4)C(C)O3)C(C)O2)c2c(cc3c(c2O)C(=O)c2c(O)ccc(O)c2C3=O)C1C(=O)OC` (stereo not given), the T/C is, setting by setting: (dose: 25.0 mg/kg/injection, schedule: Q04DX003 (ip), vehicle: Klucel (hydroxypropylcellulose) (HPC)) 134 % of control; (dose: 50.0 mg/kg/injection, schedule: Q04DX003 (ip), vehicle: Klucel (hydroxypropylcellulose) (HPC)) 132 % of control [3 of 6 alive]. With `O=c1c2cc3c(=O)n(CC[P+](c4ccccc4)(c4ccccc4)c4ccccc4)c(=O)c3cc2c(=O)n1CC[P+](c1ccccc1)(c1ccccc1)c1ccccc1`, the survivor count is reported as 3 of 6 (dose: 6.25 mg/kg/injection, schedule: Q01DX009 (ip), vehicle: water); 0 of 6 (dose: 12.5 mg/kg/injection, schedule: Q01DX009 (ip), vehicle: water); 0 of 6 (dose: 25.0 mg/kg/injection, schedule: Q01DX009 (ip), vehicle: water).

`CCN(CC)CCC(=O)c1ccccc1`: the survivor count is, setting by setting: under setting [2], 5 of 6; under setting [4], 0 of 6 and 2 of 6; under setting [3], 0 of 6. In addition, the T/C (dose: 50.0 mg/kg/injection, schedule: Q01DX009 (ip), vehicle: saline) is 127 % of control. Turning to `COc1ccc(/C=C/C(=O)CCC(=O)O)cc1OC`, the T/C reads like this: under setting [4], 133 % of control; under setting [3], 133 % of control. In addition, the survivor count (dose: 400.0 mg/kg/injection, schedule: Q01DX009 (ip), vehicle: saline) is 1 of 6. Take `NC(=O)NC(C/[N+]([O-])=N/O)C(=O)O` (stereo not given): the survivor count under setting [5] is listed as 5 of 5. Take `CC1OC(c2ccc3c(c2O)C(=O)C2=C(C3=O)[C@H]3OC(=O)C[C@H]3O[C@@H]2C)CC(N(C)C)C1O` (stereo not given in full): the survivor count was 4 of 6 (dose: 3.0 mg/kg/injection, schedule: Q01DX005 (ip), vehicle: other); 3 of 6 (dose: 6.0 mg/kg/injection, schedule: Q01DX005 (ip), vehicle: other); 0 of 6 (dose: 12.0 mg/kg/injection, schedule: Q01DX005 (ip), vehicle: other); 6 of 6 (dose: 375.0 micrograms/kg/injection, schedule: Q01DX005 (ip), vehicle: other). Regarding `CCOC(OCC)C(C)(C)CNC`, the T/C (dose: 400.0 mg/kg/injection, schedule: Q01DX001 (ip), vehicle: saline sonified) was 131 % of control. On to `O=C1NC(=O)N(C(F)(F)F)C(F)(F)N1C(F)(F)F`, for which the survivor count (dose: 200.0 mg/kg/injection, schedule: Q01DX005 (ip), vehicle: Klucel (hydroxypropylcellulose) (HPC)) is 0 of 6. As for `Cc1cc(C)cc(C(N)=O)c1`, the survivor count (dose: 400.0 mg/kg/injection, schedule: Q04DX003 (ip), vehicle: saline) is 3 of 6. As for `Cc1cccc(=O)[n-]1.Cc1cccc(=O)[n-]1.Cc1cccc(=O)[n-]1.Cc1cccc(=O)[n-]1.Cc1cccc(=O)[n-]1.Cc1cccc(=O)[n-]1.Cc1cccc(=[OH+])[n-]1.Cc1cccc(=[OH+])[n-]1.[Rh+2].[Rh+2].[Rh+2].[Rh+2]`, the survivor count (dose: 400.0 mg/kg/injection, schedule: Q04DX002 (ip), vehicle: Klucel (hydroxypropylcellulose) (HPC)) is reported as 0 of 6. As for `CCOc1ccc2nc3cc(N=Nc4ccc(N(C)C)cc4)ccc3c(N)c2c1`, the survivor count under setting [6] was 1 of 6. Regarding `Cc1ccc(NC(=S)C#N)c(C)c1`, the survivor count by setting is: under setting [7], 3 of 6; under setting [8], 0 of 6.

Consider `c1ccc(CN2CCOC2)cc1`, for which, under setting [4], the T/C is 133 % of control. In the case of `CCCCCCCCCCCCCCCCCC(=O)NC(Cc1ccc(N(CCCl)CCCl)cc1)C(=O)O` (stereo not given), the T/C (dose: 1.88 mg/kg/injection, schedule: Q03HX008 (ip), vehicle: saline) is 130 % of control. Besides, the survivor count reads like this: (dose: 30.0 mg/kg/injection, schedule: Q03HX008 (ip), vehicle: saline) 9 of 10; (dose: 60.0 mg/kg/injection, schedule: Q03HX008 (ip), vehicle: saline) 0 of 10. `O=C(OCOC(=O)N1CCOCC1)N1CCOCC1`: the survivor count under setting [7] is 6 of 6. On to `NC1C([O-])OC(CO)C(O)C1O.O=C1OC(C(O)CO)C([O-])=C1[OH2+].[Cu+2]` (stereo not given), for which the survivor count is recorded as 0 of 6 (dose: 25.0 mg/kg/injection, schedule: Q01DX005 (ip), vehicle: saline); 2 of 6 under setting [9]; 0 of 6 under setting [10]; 0 of 6 under setting [11]. Turning to `NNC(=O)CNC(=O)Nc1n[nH]c(=S)s1`, under setting [6], the survivor count is 5 of 6.

On to `c1cc2cc(C3=NCCN3)[nH]c2cc1C1=NCCN1`, for which the survivor count is 5 of 6 under setting [9], 0 of 6 under setting [10] and 0 of 6 under setting [11].

`O=CNNC(=O)c1cnccn1`: where the note is “dose: 300.0 mg/kg/injection, schedule: Q01DX009 (ip), vehicle: water”, the T/C was 127 % of control. Take `Cc1ccccc1CC1c2[nH]c3ccccc3c2CCN1C` (stereo not given): the survivor count under setting [8] was 3 of 6. As to `COc1ccc(C2=NCCc3cc(OC)c(OC)cc32)cc1OC`, under setting [5], the survivor count was 0 of 6.
